Some peptides are written in HELM: one residue between dots, names in brackets for other building blocks, links after the first $.
Test: peptide made by a vendor
Settings: whole synthesis, 220 nm

Question: Which “purity (crude or final not stated)” value does the source give for “PEPTIDE1{R.Q.I.K.I.W.F.Q.N.R.R.M.K.W.K.K.P.W.C.K.Y.Q.M.L.Q.A.L.T}$$$$V2.0” here?
Answer: 97.17%
